Results are given in words; binding and its absence hold for the method and conditions named. In cells and extracts the contact can be indirect. Some binding calls cover weakened binding; strength is not graded here.

Consider 1 molecule from publication PMC7482822.

The target of assay [1] is T1, ASC, adaptor of the NLRP3 inflammasome (mouse (endogenous in mpkCCD)) (UniProt Q9EPB4).
T1 sequence: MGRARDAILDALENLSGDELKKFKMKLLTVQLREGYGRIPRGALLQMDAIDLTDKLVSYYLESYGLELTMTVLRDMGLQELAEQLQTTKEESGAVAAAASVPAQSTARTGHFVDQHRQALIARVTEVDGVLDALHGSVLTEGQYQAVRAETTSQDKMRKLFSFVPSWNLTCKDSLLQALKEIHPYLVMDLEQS
Kind of assay: co-IP; as a1 (anti-ASC IP, protein A-sepharose, Western blot); mpkCCD cells treated with cholesterol and simvastatin. For orientation: In western blotting, separated proteins are transferred to a membrane and probed.

The target in assay [2] is T1, ASC, adaptor of the NLRP3 inflammasome (mouse (endogenous in mpkCCD)). Kind of assay: co-IP; IP with anti-ASC antibody (sc-514414, 1:10) in IP buffer overnight at 4 °C, protein A-sepharose beads for 12 h, Western blot; lysates of mpkCCD cells treated with cholesterol, with or without simvastatin.

B1: Caspase-1 (enzyme, UniProt P29452 1-402)
chain: MADKILRAKRKQFINSVSIGTINGLLDELLEKRVLNQEEMDKIKLANITAMDKARDLCDHVSKKGPQASQIFITYICNEDCYLAGILELQSAPSAETFVATEDSKGGHPSSSETKEEQNKEDGTFPGLTGTLKFCPLEKAQKLWKENPSEIYPIMNTTTRTRLALIICNTEFQHLSPRVGAQVDLREMKLLLEDLGYTVKVKENLTALEMVKEVKEFAACPEHKTSDSTFLVFMSHGIQEGICGTTYSNEVSDILKVDTIFQMMNTLKCPSLKDKPKVIIIQACRGEKQGVVLLKDSVRDSEEDFLTDAIFEDDGIKKAHIEKDFIAFCSSTPDNVSWRHPVRGSLFIESLIKHMKEYAWSCDLEDIFRKVRFSFEQPEFRLQMPTADRVTLTKRFYLFPGH
For B1, the binding result in assay [1] was “binds weakly”; in assay [2] it was “binds”.
